The list shows a part of the results. Shown are side measurements of this screen, not its main read-out; they come without a call. The list favours compounds with an active or inconclusive main result. The note in brackets gives the kind of curve behind each potency; many fits are weak.
Assay: qHTS Assay for Lipid Storage Modulators in Drosophila S3 Cells;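 as to cell number change: cells counted by Cell Tracker Red CMTPX staining in the red channel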
Conditions: BODIPY lipid droplet fluorescence, 18-24 h; for cell number change: measured here: cell count max response, cells fed with added oleic acid
Summary of the method: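 Drosophila S3 cells got compounds at several concentrations plus oleic acid (400 uM solution). Laser-scanning cytometry with 488 nm excitation read lipid droplets at 500-530 nm and cells at 575-640 nm. Percent activity was relative to 20 uM Triacsin C.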

[1] = measured here: lipid fluorescence (Fed channel) AC50, cells fed with added oleic acid
[2] = measured here: cell number channel AC50, cells fed with added oleic acid

| Structure (SMILES) | cell number change | AC50 [1] | AC50 [2] |
| --- | --- | --- | --- |
| CC1CCCCN1C(=O)COC(=O)C1CCN(S(=O)(=O)c2ccc(Cl)c(C(F)(F)F)c2)CC1 (stereo not drawn) | 7.15% |  |  |
| CC(C)CN(CC(C)C)CC(O)COc1ccc([N+](=O)[O-])cc1 (stereo not drawn) | -5.81% | 1.3 µM [falling, partial curve] |  |
| O=C(NCCc1ccc(F)cc1)c1ccc(S(=O)(=O)N2CCCC2)cc1 | 6.53% | 0.116 µM [rising, full curve, poor fit] |  |
| O=C1c2cccnc2C(=O)N1c1ccccc1-c1ccccc1 | 36.4% |  | 0.013 µM [rising, full curve, poor fit] |
| COc1ccc(C(=O)Nc2ccccc2C(=O)N/N=C/c2ccccn2)cc1OC | -15.1% | 16.4 µM [falling, single point] |  |
| COc1ccc2nc(/C=N/NC(=O)CCNC(=O)OC(C)(C)C)ccc2c1 | -14.1% | 32.6 µM [falling, single point] |  |
| Cc1nn(CC(=O)NCCCN2CCCCC2C)c(=O)c2cccn12 (stereo not drawn) | 0.597% |  |  |
| CCCN(CCC)S(=O)(=O)c1ccc(C(=O)OCCN2C(=O)c3cccc4c(N5CCOCC5)ccc(c34)C2=O)cc1 | 10.1% |  | 7.31 µM [rising, single point] |
| O=C(Nc1ccccc1Cl)N1CCN(c2ccc3nncn3n2)CC1 | 18.2% | 0.461 µM [falling, full curve] |  |
| Cc1c(CCO)c(=O)[nH]n1S(=O)(=O)c1ccccc1 | -41.5% |  | 0.00517 µM [falling, full curve, poor fit] |
| CC1CCCCC1NC(=O)CCS(=O)(=O)c1cc2c(cc1Cl)NC(=O)CO2 (stereo not drawn) | 14.3% | 29.1 µM [rising, single point] |  |
| S=C(NCCc1ccccn1)Nc1ccc(Cl)cc1 | -9.79% | 8.2 µM [rising, partial curve] |  |
| Cc1ccc(S(=O)(=O)N2CCCCC2)cc1NC(=O)COC(=O)c1ccc(O)cc1 |  | 6.51 µM [rising, single point] | 0.092 µM [falling, full curve, poor fit] |
| CCOC(=O)Cc1csc(NC(=O)c2c(O)c3c(n(CC(C)C)c2=O)CCCC3)n1 | -6.91% | 0.116 µM [falling, full curve, poor fit] |  |
| Cc1ccc(NS(=O)(=O)c2ccc(C(=O)N3CCC3)cc2)cc1 | 20.1% |  |  |
| Cc1ccc(-c2nc(CS(=O)(=O)CC(=O)N3CCN(C)CC3)c(C)o2)cc1 | -6.08% |  |  |
| O=C(NC1CC1)C1CCN(S(=O)(=O)c2ccc(Cl)cc2)CC1 | -6.67% | 1.16 µM [falling, single point] |  |
| Cc1ccccc1NC(=O)OCc1cn(-c2ccc(Cl)cc2)nn1 | -46.2% |  | 23.1 µM [falling, partial curve, poor fit] |
| COc1nc(-c2ccccc2)ccc1-c1noc(-c2cccnc2)n1 | -19.1% | 2.06 µM [falling, partial curve] |  |
| O=C(NC(=O)c1ccc(Cl)cc1)Nc1ccc(-c2cnco2)cc1 | 27.9% | 13 µM [rising, partial curve, poor fit] |  |

Given field by field: two of the compounds above.
Cc1nn(CC(=O)NCCCN2CCCCC2C)c(=O)c2cccn12 (stereo not drawn)
  cell number change: 0.597%
Cc1ccccc1NC(=O)OCc1cn(-c2ccc(Cl)cc2)nn1
  cell number change: -46.2%
  AC50 [2]: 23.1 µM [falling, partial curve, poor fit]

(further entries)

| Structure (SMILES) | cell number change | AC50 [1] | AC50 [2] |
| --- | --- | --- | --- |
| CCc1ccccc1NC(=O)c1ccc2c(c1)CCN2S(C)(=O)=O | 38.2% |  | 29.1 µM [rising, single point] |
| O=C(CC1C(=O)NCCN1C1CCCC1)NCc1cccc(OC(F)(F)F)c1 (stereo not drawn) | -23.8% | 0.58 µM [rising, single point] |  |
| Cc1cccc(NC(=O)CNC(=O)N2CC(=O)Nc3ccccc32)c1C | 20.8% |  | 0.0517 µM [rising, full curve, poor fit] |
| CC(=O)c1cnc2cc(-c3ccc(Cl)cc3)nn2c1C | 52.9% |  | 18.4 µM [rising, single point] |
| Clc1ccc(OCc2cc(-c3ccccc3)no2)cc1Cl | 72.5% | 10.3 µM [rising, partial curve] | 1.84 µM [rising, full curve] |
| COc1cc(/C=C/C(=O)c2ccccc2O)cc(OC)c1OC | -8.66% | 32.6 µM [falling, single point] | 6.51 µM [falling, single point] |
| CCCCCn1c(=S)[nH]c2cc(C(=O)N3CCCC3)ccc2c1=O |  |  | 0.82 µM [falling, full curve, poor fit] |
| CCn1c(SCC(=O)N/N=C/c2ccc(O)c(OC)c2)nc2ccccc21 | 18.6% | 23.1 µM [rising, single point] |  |
| COc1cccc(NC(=O)C(C)OC(=O)CCCNC(=O)c2ccc(Cl)cc2)c1 (stereo not drawn) | 5.5% | 0.058 µM [falling, full curve, poor fit] |  |
| Cc1ccc(CNC(=O)c2cn(C)c(=O)c3c2c2ccccc2n3C)o1 | 13.6% |  |  |
| C=C(C)CC1Nc2ccccc2NC1CC(=C)C (stereo not drawn) | 4.3% | 32.6 µM [rising, single point] |  |
| COc1ccc(C2CCCN2C(=O)Nc2cccc(C(C)=O)c2)cc1OC (stereo not drawn) |  |  | 6.51 µM [rising, single point] |
| CCCn1nc(Oc2nc(SC)nc(N(C)C)n2)ccc1=O | -1.71% | 0.366 µM [falling, partial curve, poor fit] |  |
| Cc1cc(C(=O)C(=O)O)c(C)n1-c1ccc(Cl)c(Cl)c1 | -1.54% | 0.146 µM [falling, full curve, poor fit] | 0.103 µM [falling, full curve, poor fit] |
| CCc1cccc(OCC(=O)Nc2ccc(C)c(S(=O)(=O)N3CCCCCC3)c2)c1 |  | 29.1 µM [falling, single point] |  |
| Cc1noc(C)c1S(=O)(=O)N1CCC(C(=O)Nc2ccc(Br)cc2)CC1 |  | 2.06 µM [rising, partial curve] |  |
| O=C(COC(=O)Cc1ccc(Cl)cc1)Nc1ccc(OC(F)F)cc1 | 15.8% | 0.92 µM [rising, partial curve] |  |
| O=C(Cn1ncc2c3ccccc3n(Cc3ccccc3)c2c1=O)NCCN1CCOCC1 | 4.72% | 0.206 µM [falling, full curve, poor fit] |  |
| Cc1cccc(CSCCNC(=O)c2ccc(CN3CCOCC3)cc2)c1 | -1.08% |  |  |
| COc1ccccc1N1CCN(C(=O)CCCC2=NS(=O)(=O)c3ccccc3N2)CC1 | 0.702% | 16.4 µM [rising, single point] |  |

— PubChem BioAssay AID2685 (National Center for Advancing Translational Sciences (NCATS), 2010)
